The other results are listed elsewhere or left out.
Assays:
Assay in all cases: log2 fold change, soluble protein after heating vs DMSO (PISA); higher = thermal stabilisation; K562 lysate, 10 uM; active = over 0.2 and 3.5 SD of the protein, either way, in both replicates (recomputed)
alvocidib = compound: CN1CC[C@H](c2c(O)cc(O)c3c(=O)cc(-c4ccccc4Cl)oc23)[C@H](O)C1 [alvocidib]
In short: (§1)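 Thermal stability, expressed as log-two fold change relative to solvent controls, is given from duplicates. Crude K562 extract in PBS pH 7.4 with 1 mM MgCl2, at 1 mg/mL protein, was treated with 10 μM compound for 30 min and heated in aliquots for 3 min across 48°C-58°C. After pooling, adjustment to 0.5% NP-40 at 4°C and centrifugation at 21,000xg for 90 min, supernatant protein was measured by TMTpro 16plex LC-MS/MS with channel sums equalised.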

Protein sequences, listed by entry. Tags and fused reporters are not part of them. Lines headed by an entry give the natural chain unless they say otherwise; changes in a name come on top.
UniProt Q8N5W9: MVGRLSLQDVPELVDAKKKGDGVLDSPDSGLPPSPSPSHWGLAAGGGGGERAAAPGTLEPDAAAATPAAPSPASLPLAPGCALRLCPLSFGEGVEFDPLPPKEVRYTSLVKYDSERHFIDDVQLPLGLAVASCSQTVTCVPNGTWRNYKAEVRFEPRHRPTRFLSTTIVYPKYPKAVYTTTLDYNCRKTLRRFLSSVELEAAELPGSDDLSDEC
UniProt Q9H1K0: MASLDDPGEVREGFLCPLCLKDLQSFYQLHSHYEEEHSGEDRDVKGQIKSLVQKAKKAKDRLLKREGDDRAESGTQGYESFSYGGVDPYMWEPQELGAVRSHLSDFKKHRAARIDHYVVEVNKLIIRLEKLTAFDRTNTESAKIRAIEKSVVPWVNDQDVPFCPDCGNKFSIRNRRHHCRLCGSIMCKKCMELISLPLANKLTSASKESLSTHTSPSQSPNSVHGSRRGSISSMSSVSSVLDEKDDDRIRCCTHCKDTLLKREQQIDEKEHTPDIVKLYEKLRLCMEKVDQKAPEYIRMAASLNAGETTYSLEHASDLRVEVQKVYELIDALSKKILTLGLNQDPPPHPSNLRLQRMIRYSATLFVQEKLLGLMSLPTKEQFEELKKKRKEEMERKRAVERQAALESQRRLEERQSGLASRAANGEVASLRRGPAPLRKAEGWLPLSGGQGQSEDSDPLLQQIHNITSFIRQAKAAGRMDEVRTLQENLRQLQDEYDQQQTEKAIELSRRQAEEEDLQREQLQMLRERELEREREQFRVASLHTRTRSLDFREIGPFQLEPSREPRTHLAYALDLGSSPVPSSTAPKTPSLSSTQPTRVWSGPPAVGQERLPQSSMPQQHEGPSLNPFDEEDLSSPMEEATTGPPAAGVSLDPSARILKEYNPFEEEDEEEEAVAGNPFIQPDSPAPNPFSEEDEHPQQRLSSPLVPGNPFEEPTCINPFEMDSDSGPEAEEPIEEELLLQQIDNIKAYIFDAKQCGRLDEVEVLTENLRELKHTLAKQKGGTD
UniProt P53805: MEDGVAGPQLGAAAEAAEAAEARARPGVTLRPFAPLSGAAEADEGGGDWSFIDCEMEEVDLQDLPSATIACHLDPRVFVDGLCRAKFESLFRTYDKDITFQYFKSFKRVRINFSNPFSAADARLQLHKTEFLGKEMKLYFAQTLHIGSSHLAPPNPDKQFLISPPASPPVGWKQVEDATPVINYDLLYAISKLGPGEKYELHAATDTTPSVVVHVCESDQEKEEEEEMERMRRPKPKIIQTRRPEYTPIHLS
UniProt P46063: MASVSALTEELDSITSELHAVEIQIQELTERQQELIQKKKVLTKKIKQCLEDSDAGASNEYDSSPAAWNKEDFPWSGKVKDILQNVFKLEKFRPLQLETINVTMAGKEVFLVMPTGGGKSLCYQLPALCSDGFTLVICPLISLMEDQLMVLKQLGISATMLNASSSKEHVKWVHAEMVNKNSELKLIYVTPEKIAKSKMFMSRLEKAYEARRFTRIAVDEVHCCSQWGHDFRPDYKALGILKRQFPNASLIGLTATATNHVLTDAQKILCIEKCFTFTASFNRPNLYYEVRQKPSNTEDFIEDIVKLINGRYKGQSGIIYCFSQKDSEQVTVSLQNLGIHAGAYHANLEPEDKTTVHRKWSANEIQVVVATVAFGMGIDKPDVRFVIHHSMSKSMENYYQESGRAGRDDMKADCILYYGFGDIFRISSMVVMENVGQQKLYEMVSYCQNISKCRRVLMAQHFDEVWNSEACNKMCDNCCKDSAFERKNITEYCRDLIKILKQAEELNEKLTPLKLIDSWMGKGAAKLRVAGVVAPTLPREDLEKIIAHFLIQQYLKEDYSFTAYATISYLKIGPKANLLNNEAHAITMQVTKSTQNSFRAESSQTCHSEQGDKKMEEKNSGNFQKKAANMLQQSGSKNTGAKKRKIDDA
UniProt Q02094: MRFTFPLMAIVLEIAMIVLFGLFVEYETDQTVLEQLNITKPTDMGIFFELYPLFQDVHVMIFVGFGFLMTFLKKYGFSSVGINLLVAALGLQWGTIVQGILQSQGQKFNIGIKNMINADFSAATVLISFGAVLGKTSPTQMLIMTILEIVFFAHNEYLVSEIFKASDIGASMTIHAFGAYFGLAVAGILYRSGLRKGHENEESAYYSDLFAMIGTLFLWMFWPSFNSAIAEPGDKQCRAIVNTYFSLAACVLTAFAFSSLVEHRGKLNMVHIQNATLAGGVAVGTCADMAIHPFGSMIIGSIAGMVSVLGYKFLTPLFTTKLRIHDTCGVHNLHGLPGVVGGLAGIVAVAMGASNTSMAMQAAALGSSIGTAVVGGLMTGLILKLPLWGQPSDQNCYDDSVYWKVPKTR
UniProt Q99666, whole entry, looked up: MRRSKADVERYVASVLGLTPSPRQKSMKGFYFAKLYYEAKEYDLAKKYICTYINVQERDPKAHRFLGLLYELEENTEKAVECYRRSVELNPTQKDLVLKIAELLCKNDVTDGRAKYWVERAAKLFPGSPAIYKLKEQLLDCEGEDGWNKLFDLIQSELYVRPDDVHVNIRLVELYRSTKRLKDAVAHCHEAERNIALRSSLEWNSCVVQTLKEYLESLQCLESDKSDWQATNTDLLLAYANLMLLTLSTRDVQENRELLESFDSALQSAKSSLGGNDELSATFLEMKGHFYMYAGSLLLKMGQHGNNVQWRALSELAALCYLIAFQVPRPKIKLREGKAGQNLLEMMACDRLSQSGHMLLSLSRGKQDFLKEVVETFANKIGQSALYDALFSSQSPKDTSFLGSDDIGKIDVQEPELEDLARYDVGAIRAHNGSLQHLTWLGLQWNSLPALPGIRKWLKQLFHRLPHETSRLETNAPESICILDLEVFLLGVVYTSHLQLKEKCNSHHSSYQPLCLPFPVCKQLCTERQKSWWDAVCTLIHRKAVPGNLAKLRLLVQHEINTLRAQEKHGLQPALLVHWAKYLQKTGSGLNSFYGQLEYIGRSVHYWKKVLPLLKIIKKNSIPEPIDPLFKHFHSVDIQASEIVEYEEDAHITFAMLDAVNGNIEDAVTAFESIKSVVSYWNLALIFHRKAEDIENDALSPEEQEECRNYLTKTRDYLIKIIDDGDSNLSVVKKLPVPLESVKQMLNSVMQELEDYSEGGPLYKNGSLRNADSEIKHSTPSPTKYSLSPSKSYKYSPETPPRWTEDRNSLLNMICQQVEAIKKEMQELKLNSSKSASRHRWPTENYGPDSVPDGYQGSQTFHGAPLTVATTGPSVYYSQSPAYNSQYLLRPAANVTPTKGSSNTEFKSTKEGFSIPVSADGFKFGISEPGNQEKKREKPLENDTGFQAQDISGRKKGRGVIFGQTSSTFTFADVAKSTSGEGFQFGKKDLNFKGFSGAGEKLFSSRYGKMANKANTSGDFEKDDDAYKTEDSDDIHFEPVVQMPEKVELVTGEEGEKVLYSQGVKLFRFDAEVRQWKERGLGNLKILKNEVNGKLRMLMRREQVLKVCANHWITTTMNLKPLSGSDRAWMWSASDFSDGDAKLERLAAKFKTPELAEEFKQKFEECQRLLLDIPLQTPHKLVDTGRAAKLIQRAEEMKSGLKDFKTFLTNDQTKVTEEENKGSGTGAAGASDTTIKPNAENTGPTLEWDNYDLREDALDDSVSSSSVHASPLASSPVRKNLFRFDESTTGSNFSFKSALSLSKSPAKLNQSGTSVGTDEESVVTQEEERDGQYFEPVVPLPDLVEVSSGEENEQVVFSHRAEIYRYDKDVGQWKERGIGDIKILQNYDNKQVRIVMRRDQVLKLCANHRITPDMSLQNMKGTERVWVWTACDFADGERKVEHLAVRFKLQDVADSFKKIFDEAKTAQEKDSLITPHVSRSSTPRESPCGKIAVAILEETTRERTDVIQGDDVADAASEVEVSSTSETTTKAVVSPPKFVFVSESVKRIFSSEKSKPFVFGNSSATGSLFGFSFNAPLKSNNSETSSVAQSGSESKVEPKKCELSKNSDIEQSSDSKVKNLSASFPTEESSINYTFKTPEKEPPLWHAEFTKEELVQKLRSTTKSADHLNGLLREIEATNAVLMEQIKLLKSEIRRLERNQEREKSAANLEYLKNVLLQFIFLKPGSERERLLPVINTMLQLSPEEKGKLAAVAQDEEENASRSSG
UniProt P35251: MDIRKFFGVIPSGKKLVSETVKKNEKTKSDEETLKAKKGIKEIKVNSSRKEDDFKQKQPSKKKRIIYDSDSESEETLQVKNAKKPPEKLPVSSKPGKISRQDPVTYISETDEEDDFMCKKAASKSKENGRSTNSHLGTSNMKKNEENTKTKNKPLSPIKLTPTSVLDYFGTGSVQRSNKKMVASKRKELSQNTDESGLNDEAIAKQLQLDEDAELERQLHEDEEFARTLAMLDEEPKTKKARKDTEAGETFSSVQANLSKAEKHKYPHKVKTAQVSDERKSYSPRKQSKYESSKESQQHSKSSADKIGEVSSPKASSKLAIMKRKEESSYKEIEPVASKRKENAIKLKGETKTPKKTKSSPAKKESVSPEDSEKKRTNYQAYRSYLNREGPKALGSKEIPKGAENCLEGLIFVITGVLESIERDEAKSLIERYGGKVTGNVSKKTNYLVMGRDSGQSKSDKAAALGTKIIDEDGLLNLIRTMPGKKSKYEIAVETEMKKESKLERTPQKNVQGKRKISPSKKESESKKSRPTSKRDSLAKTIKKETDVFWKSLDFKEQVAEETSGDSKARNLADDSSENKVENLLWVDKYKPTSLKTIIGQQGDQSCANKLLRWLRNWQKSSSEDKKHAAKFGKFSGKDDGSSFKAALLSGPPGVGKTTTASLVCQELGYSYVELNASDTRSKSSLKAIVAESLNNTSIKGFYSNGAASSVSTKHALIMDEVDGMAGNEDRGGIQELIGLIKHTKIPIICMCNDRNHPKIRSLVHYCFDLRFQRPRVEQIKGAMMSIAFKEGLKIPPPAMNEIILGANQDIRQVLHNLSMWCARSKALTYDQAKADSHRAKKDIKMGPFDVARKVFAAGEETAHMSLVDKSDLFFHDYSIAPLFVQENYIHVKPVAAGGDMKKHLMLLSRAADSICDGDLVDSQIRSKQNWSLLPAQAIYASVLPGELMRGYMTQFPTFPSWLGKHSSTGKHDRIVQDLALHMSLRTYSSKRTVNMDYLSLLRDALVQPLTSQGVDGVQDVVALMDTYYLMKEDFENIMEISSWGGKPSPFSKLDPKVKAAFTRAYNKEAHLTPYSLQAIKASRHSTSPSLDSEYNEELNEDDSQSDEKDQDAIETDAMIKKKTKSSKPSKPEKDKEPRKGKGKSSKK
UniProt Q99708: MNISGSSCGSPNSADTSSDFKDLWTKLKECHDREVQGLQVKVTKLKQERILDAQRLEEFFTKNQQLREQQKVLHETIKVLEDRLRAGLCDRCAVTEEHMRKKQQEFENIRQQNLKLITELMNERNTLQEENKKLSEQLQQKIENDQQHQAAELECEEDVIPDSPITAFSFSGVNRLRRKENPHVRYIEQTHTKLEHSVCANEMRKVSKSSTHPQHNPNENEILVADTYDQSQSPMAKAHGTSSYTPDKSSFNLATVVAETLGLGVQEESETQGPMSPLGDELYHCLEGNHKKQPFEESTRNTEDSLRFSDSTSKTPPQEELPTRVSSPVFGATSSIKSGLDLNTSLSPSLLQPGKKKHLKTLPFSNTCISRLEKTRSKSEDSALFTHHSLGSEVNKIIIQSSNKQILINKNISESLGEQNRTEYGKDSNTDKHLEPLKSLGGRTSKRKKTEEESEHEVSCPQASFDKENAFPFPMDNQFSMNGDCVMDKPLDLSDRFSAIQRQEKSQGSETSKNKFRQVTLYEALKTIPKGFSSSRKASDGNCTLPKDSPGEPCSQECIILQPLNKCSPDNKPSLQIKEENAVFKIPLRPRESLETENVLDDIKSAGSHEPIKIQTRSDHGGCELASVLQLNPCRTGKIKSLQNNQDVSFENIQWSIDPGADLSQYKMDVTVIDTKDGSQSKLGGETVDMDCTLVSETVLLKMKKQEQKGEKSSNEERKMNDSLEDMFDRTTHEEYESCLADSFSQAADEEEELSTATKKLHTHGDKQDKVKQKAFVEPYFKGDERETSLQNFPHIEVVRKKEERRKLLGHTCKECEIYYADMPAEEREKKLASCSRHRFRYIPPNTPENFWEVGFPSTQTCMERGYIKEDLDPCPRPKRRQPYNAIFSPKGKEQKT
UniProt Q9HBH5: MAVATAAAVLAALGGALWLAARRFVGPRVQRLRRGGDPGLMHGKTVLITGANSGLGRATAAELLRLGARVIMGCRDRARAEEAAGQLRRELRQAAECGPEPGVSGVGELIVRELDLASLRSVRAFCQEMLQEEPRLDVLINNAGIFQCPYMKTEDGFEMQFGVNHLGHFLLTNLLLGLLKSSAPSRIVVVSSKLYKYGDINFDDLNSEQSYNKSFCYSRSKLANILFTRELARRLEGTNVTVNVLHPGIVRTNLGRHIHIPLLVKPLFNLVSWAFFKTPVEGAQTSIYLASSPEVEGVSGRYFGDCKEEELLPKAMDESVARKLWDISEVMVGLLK

Tubastatin A = compound: CN1CCc2c(c3ccccc3n2Cc2ccc(C(=O)NO)cc2)C1 [Tubastatin A]
In short: as §1

[1] = compound: CNC(=O)C1=CC=CC=C1NC2=NC(=NC=C2Cl)NC3=C(C=C(C=C3)N4CCOCC4)OC
In short: as §1

defactinib = compound: CNC(=O)c1ccc(Nc2ncc(C(F)(F)F)c(NCc3nccnc3N(C)S(C)(=O)=O)n2)cc1 [defactinib]
In short: as §1

[2] = compound: CNc1nc(-c2ccc3c(N)n[nH]c3c2)cc(N2C[C@@H](C(=O)NC3CCCCC3)CC[C@H]2C)n1
In short: as §1

encorafenib = compound: COC(=O)N[C@@H](C)CNc1nccc(-c2cn(C(C)C)nc2-c2cc(Cl)cc(NS(C)(=O)=O)c2F)n1 [encorafenib]
In short: as §1

[3] = compound: COC(=O)[C@H](CCSC)NC(=O)C1=C(C=C(C=C1)NC[C@H](CS)N)C2=CC=CC=C2
In short: as §1

alisertib = compound: COc1cc(Nc2ncc3c(n2)-c2ccc(Cl)cc2C(c2c(F)cccc2OC)=NC3)ccc1C(=O)O [alisertib]
In short: as §1

[4] = compound: COc1cc2nc(-c3cc(F)ccc3O)nc(N[C@@H]3CNC[C@H]3C(C)(C)O)c2cc1OC
In short: as §1

gefitinib = compound: COc1cc2ncnc(Nc3ccc(F)c(Cl)c3)c2cc1OCCCN1CCOCC1 [gefitinib]
In short: as §1

lapatinib = compound: CS(=O)(=O)CCNCc1ccc(-c2ccc3ncnc(Nc4ccc(OCc5cccc(F)c5)c(Cl)c4)c3c2)o1 [lapatinib]
In short: as §1

pictilisib = compound: CS(=O)(=O)N1CCN(Cc2cc3nc(-c4cccc5[nH]ncc45)nc(N4CCOCC4)c3s2)CC1 [pictilisib]
In short: as §1

crizotinib = compound: C[C@@H](Oc1cc(-c2cnn(C3CCNCC3)c2)cnc1N)c1c(Cl)ccc(F)c1Cl [crizotinib]
In short: as §1

[5] = compound: C[C@H](C1=CC=C(C=C1)C(=O)NC2=C3C=CNC3=NC=C2)N
In short: as §1

duvelisib = compound: C[C@H](Nc1ncnc2nc[nH]c12)c1cc2cccc(Cl)c2c(=O)n1-c1ccccc1 [duvelisib]
In short: as §1

gandotinib = compound: Cc1cc(Nc2cc(CN3CCOCC3)c3nc(C)c(Cc4ccc(Cl)cc4F)n3n2)n[nH]1 [gandotinib]
In short: as §1

tozasertib = compound: Cc1cc(Nc2cc(N3CCN(C)CC3)nc(Sc3ccc(NC(=O)C4CC4)cc3)n2)n[nH]1 [tozasertib]
In short: as §1

doramapimod = compound: Cc1ccc(-n2nc(C(C)(C)C)cc2NC(=O)Nc2ccc(OCCN3CCOCC3)c3ccccc23)cc1 [doramapimod]
In short: as §1

bafetinib = compound: Cc1ccc(NC(=O)c2ccc(CN3CC[C@H](N(C)C)C3)c(C(F)(F)F)c2)cc1Nc1nccc(-c2cncnc2)n1 [bafetinib]
In short: as §1

[6] = compound: Cc1cccc(CC(=O)N2CCc3c2ccc(-c2cn(C)c4ncnc(N)c24)c3F)n1
In short: as §1

Target | log2 fold change (alvocidib) | log2 fold change (Tubastatin A) | log2 fold change [1] | log2 fold change (defactinib) | log2 fold change [2] | log2 fold change (encorafenib) | log2 fold change [3] | log2 fold change (alisertib) | log2 fold change [4] | log2 fold change (gefitinib) | log2 fold change (lapatinib) | log2 fold change (pictilisib) | log2 fold change (crizotinib) | log2 fold change [5] | log2 fold change (duvelisib) | log2 fold change (gandotinib) | log2 fold change (tozasertib) | log2 fold change (doramapimod) | log2 fold change (bafetinib) | log2 fold change [6]
REEP4 (UniProt Q9H6H4) | inactive: 0.044 | inactive: -0.068 | inactive: -0.047 | inactive: 0.01 | inactive: -0.025 | inactive: 0.01 | inactive: -0.049 | inactive: -0.018 | inactive: 0.006 | inactive: -0.043 | inactive: 0.013 | inactive: -0.081 | inactive: -0.036 | inactive: -0.007 | inactive: -0.011 | inactive: -0.119 | inactive: -0.016 | inactive: 0.014 | inactive: 0.082 | inactive: 0.049
RFC5 (UniProt P40937) | inactive: 0.004 | inactive: -0.203 | inactive: 0.003 | inactive: 0.008 | inactive: -0.004 | inactive: 0.051 | inactive: 0.148 | inactive: -0.006 | inactive: -0.003 | inactive: 0 | inactive: 0.007 | inactive: -0.058 | inactive: -0.056 | inactive: -0.047 | inactive: 0.016 | inactive: -0.068 | inactive: 0.018 | inactive: 0.026 | inactive: -0.039 | inactive: 0.018
RFLNB (UniProt Q8N5W9) | inactive: 0.015 | inactive: 0.032 | inactive: 0.237 | inactive: -0.096 | inactive: 0.12 | inactive: 0.011 | inactive: -0.021 | inactive: -0.114 | inactive: 0.001 | inactive: -0.131 | inactive: 0.111 | inactive: -0.095 | inactive: -0.043 | inactive: 0.05 | inactive: -0.046 | inactive: -0.055 | inactive: 0.005 | inactive: 0.045 | inactive: 0.082 | inactive: -0.083
RBSN (UniProt Q9H1K0) | inactive: -0.031 | inactive: 0.005 | inactive: -0.047 | inactive: 0.015 | inactive: -0.014 | inactive: 0.089 | inactive: -0.048 | inactive: 0.019 | inactive: 0.015 | inactive: 0.059 | inactive: -0.008 | inactive: -0.024 | inactive: -0.012 | inactive: -0.032 | inactive: 0.093 | inactive: 0.019 | inactive: 0.13 | inactive: -0.026 | inactive: 0.026 | inactive: 0.059
RCAN1 (UniProt P53805) | inactive: -0.003 | inactive: -0.118 | inactive: 0.052 | inactive: 0.006 | inactive: 0.079 | inactive: 0.065 | inactive: 0.035 | inactive: -0.02 | inactive: 0.019 | inactive: -0.038 | inactive: -0.017 | inactive: -0.048 | inactive: -0.127 | inactive: -0.088 | inactive: -0.012 | inactive: 0.041 | inactive: 0.017 | inactive: -0.039 | inactive: 0.123 | inactive: -0.03
RBM5 (UniProt P52756) | inactive: -0.226 | inactive: -0.059 | inactive: 0.021 | inactive: 0.01 | inactive: 0.028 | inactive: 0.044 | inactive: 0.134 | inactive: -0.035 | inactive: 0.182 | inactive: 0.18 | inactive: 0.029 | inactive: -0.013 | inactive: 0.005 | inactive: -0.268 | inactive: -0.058 | inactive: -0.015 | inactive: 0 | inactive: 0.058 | inactive: -0.051 | inactive: 0.089
RECQL (UniProt P46063) | inactive: 0.016 | inactive: -0.007 | inactive: 0.019 | inactive: 0.013 | inactive: 0.02 | inactive: 0.005 | inactive: 0.087 | inactive: -0.035 | inactive: 0.008 | inactive: -0.033 | inactive: -0.002 | inactive: -0.026 | inactive: -0.022 | inactive: -0.011 | inactive: -0.012 | inactive: -0.032 | inactive: -0.021 | inactive: -0.021 | inactive: -0.02 | inactive: 0.006
RBMX (UniProt P38159) | inactive: -0.003 | inactive: -0.03 | inactive: -0.042 | inactive: 0.023 | inactive: -0.022 | inactive: 0.021 | inactive: -0.068 | inactive: 0.002 | inactive: 0.013 | inactive: 0.023 | inactive: 0.002 | inactive: 0.012 | inactive: 0.022 | inactive: 0.011 | inactive: 0.033 | inactive: -0.003 | inactive: 0.013 | inactive: 0.008 | inactive: 0.068 | inactive: 0.022
RHAG (UniProt Q02094) | inactive: -0.133 | inactive: 0.031 | inactive: 0.043 | inactive: -0.043 | inactive: 0.037 | inactive: 0.016 | inactive: 0.02 | inactive: -0.004 | inactive: 0.046 | inactive: -0.051 | inactive: -0.046 | inactive: -0.002 | inactive: -0.038 | active: -0.381 | inactive: 0.113 | inactive: 0.07 | inactive: 0.05 | inactive: 0.032 | inactive: 0.004 | inactive: 0.184
RGPD5 (UniProt Q99666) | inactive: -0.039 | inactive: -0.006 | inactive: 0.053 | inactive: -0.082 | inactive: 0.113 | inactive: -0.054 | inactive: 0.048 | inactive: 0.103 | inactive: -0.061 | inactive: -0.057 | inactive: 0 | inactive: 0.081 | inactive: 0 | inactive: -0.02 | inactive: 0.016 | inactive: 0.051 | inactive: -0.028 | inactive: -0.002 | inactive: -0.019 | inactive: -0.009
RFC1 (UniProt P35251) | inactive: -0.111 | inactive: -0.082 | inactive: -0.179 | inactive: -0.003 | inactive: 0.076 | inactive: 0.159 | inactive: 0.158 | inactive: 0.017 | inactive: 0.011 | inactive: 0.005 | inactive: 0.018 | inactive: -0.048 | inactive: -0.044 | inactive: -0.052 | inactive: 0.013 | inactive: 0.032 | inactive: -0.078 | inactive: 0.051 | inactive: -0.111 | inactive: 0.032
RBBP8 isoform 2 (UniProt Q99708) | inactive: 0.013 | inactive: 0.07 | inactive: 0.061 | inactive: -0.023 | inactive: 0.108 | inactive: -0.039 | inactive: -0.074 | inactive: -0.008 | inactive: 0.009 | inactive: -0.014 | inactive: -0.042 | inactive: 0.069 | inactive: -0.085 | inactive: 0.065 | inactive: 0.032 | inactive: -0.013 | inactive: 0.177 | inactive: 0.024 | inactive: -0.079 | inactive: 0.007
RDH14 (UniProt Q9HBH5) | inactive: -0.001 | inactive: -0.033 | inactive: 0.088 | inactive: -0.044 | inactive: -0.123 | inactive: -0.028 | inactive: -0.199 | inactive: 0.07 | inactive: -0.043 | inactive: -0.07 | inactive: 0.082 | inactive: -0.028 | inactive: 0.009 | inactive: -0.191 | inactive: 0.002 | inactive: 0.176 | inactive: 0.043 | inactive: 0 | inactive: -0.005 | inactive: 0.198
RCE1 (UniProt Q9Y256) | inactive: -0.037 | inactive: 0.023 | inactive: -0.039 | inactive: 0.271 | inactive: 0.064 | inactive: 0.011 | inactive: -0.068 | inactive: -0.125 | inactive: 0.057 | inactive: 0.19 | inactive: 0.189 | inactive: -0.003 | inactive: -0.04 | inactive: 0.006 | inactive: 0.042 | inactive: -0.131 | inactive: -0.029 | inactive: -0.11 | inactive: 0.032 | inactive: 0.01
RBM14 (UniProt Q96PK6) | inactive: -0.022 | inactive: -0.021 | inactive: 0.001 | inactive: 0.017 | inactive: -0.022 | inactive: 0.065 | inactive: 0.038 | inactive: 0.045 | inactive: -0.016 | inactive: -0.077 | inactive: -0.048 | inactive: -0.02 | inactive: 0.008 | inactive: -0.053 | inactive: 0.015 | inactive: 0.165 | inactive: 0.011 | inactive: 0.055 | inactive: 0.051 | inactive: 0.093
RFESD isoform 2 (UniProt Q8TAC1) | inactive: -0.008 | inactive: 0.025 | inactive: -0.037 | inactive: -0.065 | inactive: 0 | inactive: -0.01 | inactive: -0.049 | inactive: -0.04 | inactive: 0.016 | inactive: -0.028 | inactive: 0.008 | inactive: 0.029 | inactive: 0.052 | inactive: 0.004 | inactive: 0.03 | inactive: -0.041 | inactive: -0.002 | inactive: 0.007 | inactive: -0.047 | inactive: -0.017

Only log2 fold change [1] and log2 fold change [4], for some of the entries so far:

| Target | log2 fold change [1] | log2 fold change [4] |
| --- | --- | --- |
| RBM5 (UniProt P52756) | inactive: 0.021 | inactive: 0.182 |
| RECQL (UniProt P46063) | inactive: 0.019 | inactive: 0.008 |

— the supplement of paper PMC10849652
